Library screen at single concentrations

By UniProt entry, the sequences of proteins in these tests, tags left out. Residues count along the entry.
UniProt P9WPC5, whole entry: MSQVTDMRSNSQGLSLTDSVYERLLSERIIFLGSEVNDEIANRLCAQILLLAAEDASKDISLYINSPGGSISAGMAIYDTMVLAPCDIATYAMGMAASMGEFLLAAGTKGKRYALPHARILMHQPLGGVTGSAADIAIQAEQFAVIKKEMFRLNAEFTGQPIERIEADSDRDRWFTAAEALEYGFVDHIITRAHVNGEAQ
UniProt P9WPC3, whole entry partner: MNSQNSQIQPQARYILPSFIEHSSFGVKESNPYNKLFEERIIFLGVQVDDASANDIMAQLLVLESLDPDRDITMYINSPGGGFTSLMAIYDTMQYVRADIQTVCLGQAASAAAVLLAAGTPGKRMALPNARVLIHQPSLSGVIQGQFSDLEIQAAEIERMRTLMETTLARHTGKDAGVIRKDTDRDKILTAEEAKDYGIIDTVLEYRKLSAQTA
UniProt Q4DA54, 1-478: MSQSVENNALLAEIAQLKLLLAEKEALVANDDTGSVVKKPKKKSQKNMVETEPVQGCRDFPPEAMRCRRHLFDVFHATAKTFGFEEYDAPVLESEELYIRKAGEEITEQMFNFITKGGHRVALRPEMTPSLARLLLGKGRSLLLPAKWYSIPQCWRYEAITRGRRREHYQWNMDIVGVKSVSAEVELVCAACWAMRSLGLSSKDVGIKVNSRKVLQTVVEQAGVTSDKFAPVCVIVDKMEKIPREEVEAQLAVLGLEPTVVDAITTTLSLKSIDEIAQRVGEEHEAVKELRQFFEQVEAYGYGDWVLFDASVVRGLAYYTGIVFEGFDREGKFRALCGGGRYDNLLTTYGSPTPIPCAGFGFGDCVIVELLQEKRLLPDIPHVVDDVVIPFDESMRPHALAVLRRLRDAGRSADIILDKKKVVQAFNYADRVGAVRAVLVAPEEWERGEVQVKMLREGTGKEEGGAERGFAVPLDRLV
UniProt I6X8D2, whole entry: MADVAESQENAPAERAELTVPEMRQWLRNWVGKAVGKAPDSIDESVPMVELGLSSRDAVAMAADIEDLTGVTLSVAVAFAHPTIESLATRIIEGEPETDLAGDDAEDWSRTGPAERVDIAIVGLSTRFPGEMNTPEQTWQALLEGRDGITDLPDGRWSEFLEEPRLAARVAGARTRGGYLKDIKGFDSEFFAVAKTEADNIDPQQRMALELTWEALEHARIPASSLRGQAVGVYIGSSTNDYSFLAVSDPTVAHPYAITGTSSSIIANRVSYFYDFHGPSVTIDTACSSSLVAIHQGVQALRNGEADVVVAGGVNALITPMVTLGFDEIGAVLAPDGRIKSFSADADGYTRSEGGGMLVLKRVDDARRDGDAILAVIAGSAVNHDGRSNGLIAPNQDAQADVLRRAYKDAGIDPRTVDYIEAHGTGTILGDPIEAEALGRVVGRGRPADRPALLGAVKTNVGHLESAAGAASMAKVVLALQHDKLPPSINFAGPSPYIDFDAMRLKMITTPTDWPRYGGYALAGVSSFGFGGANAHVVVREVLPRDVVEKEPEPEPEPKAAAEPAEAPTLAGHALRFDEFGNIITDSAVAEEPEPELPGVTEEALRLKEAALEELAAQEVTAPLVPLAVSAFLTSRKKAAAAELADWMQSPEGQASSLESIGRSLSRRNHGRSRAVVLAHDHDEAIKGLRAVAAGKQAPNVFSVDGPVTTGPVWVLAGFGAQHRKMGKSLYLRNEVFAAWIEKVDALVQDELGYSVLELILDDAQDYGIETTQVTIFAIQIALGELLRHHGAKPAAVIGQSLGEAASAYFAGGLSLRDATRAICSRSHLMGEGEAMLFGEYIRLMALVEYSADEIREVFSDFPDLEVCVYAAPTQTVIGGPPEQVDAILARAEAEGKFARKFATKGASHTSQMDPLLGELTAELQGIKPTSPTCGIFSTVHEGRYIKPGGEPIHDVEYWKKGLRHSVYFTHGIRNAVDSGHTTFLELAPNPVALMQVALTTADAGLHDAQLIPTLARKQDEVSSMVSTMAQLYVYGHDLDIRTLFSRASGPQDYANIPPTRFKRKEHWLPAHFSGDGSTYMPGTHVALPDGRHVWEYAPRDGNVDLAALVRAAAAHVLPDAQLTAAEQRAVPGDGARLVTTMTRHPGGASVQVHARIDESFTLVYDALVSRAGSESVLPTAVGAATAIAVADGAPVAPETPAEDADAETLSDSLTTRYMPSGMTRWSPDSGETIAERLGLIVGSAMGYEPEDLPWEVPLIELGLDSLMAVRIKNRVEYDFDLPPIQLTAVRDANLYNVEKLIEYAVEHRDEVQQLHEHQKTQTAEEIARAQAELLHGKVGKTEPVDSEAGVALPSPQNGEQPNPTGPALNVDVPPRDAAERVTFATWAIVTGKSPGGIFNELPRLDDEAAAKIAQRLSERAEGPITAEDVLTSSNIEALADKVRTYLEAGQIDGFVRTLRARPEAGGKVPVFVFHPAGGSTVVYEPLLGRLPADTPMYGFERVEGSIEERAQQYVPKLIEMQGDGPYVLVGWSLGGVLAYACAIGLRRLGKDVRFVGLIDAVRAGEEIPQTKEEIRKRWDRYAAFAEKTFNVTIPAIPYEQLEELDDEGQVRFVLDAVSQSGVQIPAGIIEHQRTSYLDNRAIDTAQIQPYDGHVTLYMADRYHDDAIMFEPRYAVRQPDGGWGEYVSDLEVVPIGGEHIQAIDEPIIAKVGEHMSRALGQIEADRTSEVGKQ
UniProt Q8IDJ8, 1-583: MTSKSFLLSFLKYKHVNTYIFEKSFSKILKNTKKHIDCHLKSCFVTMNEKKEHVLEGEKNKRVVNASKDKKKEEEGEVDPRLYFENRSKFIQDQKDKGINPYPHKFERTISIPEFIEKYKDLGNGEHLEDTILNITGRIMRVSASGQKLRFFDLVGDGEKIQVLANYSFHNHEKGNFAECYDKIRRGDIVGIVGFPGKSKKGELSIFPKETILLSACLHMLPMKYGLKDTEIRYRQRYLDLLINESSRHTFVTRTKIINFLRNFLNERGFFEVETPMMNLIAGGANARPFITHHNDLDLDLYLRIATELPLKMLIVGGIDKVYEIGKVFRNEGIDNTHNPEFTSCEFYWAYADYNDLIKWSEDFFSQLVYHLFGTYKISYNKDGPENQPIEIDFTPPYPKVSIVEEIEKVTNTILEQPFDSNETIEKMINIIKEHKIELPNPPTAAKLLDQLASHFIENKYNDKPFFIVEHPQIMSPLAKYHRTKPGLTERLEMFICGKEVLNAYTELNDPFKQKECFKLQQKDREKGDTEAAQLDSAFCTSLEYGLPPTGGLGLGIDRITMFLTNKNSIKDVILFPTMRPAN

The filed quantity is “Percent Effect” (%).
The controls that fix the scale are not given in the record; negative values are as filed.
This is an unselected part of the compounds tested.

ClpP1P2: 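Protease assay of ClpP1P2, read by the AMC dye that it sets free. Target: ClpP1P2, Mycobacterium tuberculosis (UniProt P9WPC5 and UniProt P9WPC3). Concentration: 50 µM. Direction is inferred from only a few compounds that gave an IC50; most scored high, so higher reads as stronger inhibition. Most other retested compounds had strongly negative values. Size under these conditions: about 69,000 compounds, about 10 of them at 50% or above in at least one test.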
Toxoplasma: 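Assay of Toxoplasma gondii numbers, read through their beta-galactosidase reporter with a colour substrate. Tested at 10 µM. Higher reads as fewer parasites (inferred from which compounds were picked for retests). About 67,000 compounds were tested under these conditions; 0.38% (about 260) showed 50% or more at least once.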
TcHisRS: 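Histidine-tRNA ligase, Trypanosoma cruzi CL Brener (UniProt Q4DA54). Enzyme assay of histidyl-tRNA synthetase; the read-out is not stated. Compounds at 30 µM. Direction is inferred from retests: higher values go with stronger inhibition. Size under these conditions: about 69,000 compounds, about 31 of them at 50% or above in at least one test.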
Pks13 thioesterase: 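Polyketide synthase Pks13, Mycobacterium tuberculosis (UniProt I6X8D2). Enzyme assay of the thioesterase domain of polyketide synthase 13; the read-out is not stated. Compounds at 30 µM. Higher reads as stronger inhibition (inferred from which compounds were picked for retests). Size under these conditions: about 67,000 compounds, about 300 of them at 50% or above in at least one test.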
PfKRS1: 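Lysine-tRNA ligase, Plasmodium falciparum 3D7 (UniProt Q8IDJ8). Enzyme assay of the cytosolic lysyl-tRNA synthetase in 384-well plates, read by luminescence. Concentration: 30 µM. Direction is inferred from only a few compounds that gave an IC50; most scored high, so higher reads as stronger inhibition. About 69,000 compounds were tested under these conditions; 0.071% (about 49) showed 50% or more at least once.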

compound: CN(C)[C@H]1CCN(c2nc(C(C)(C)C)nc3c2cnn3C)C1
ClpP1P2: -0.6992
Toxoplasma: -7.876
TcHisRS: 2.469
Pks13 thioesterase: -19.5
PfKRS1: 4.066

compound: O=C(NCCc1nccs1)N1CCC(n2cccc2)CC1
ClpP1P2: -2.087
Toxoplasma: 1.836
TcHisRS: -0.5525
Pks13 thioesterase: -22.02
PfKRS1: -1.431

compound: COC(=O)C(C)N(Cc1cc(C)on1)C1CC1 (configuration not stated)
ClpP1P2: 2.299
Toxoplasma: 11.12
TcHisRS: 1.205
Pks13 thioesterase: -6.896
PfKRS1: -0.1939

compound: c1csc(CN2C[C@H](OCC3CCOCC3)[C@H]3COC[C@H]32)n1
ClpP1P2: 17.51
TcHisRS: -3.315
Pks13 thioesterase: -39.73
PfKRS1: 1.388

compound: O=C(O)C(F)(F)F.[H][C@@]12CN(Cc3ccsc3)CCC[C@]1(C(=O)O)CN(c1ncccn1)C2
Toxoplasma: 1.859

compound: CCc1cc(N[C@H]2CCC[C@H]2CO)n2nccc2n1
ClpP1P2: 11.12
Toxoplasma: -1.175
TcHisRS: 7.143
Pks13 thioesterase: -21.35
PfKRS1: -1.601

compound: Cc1ccc2c(-c3nc4c([nH]3)CCNC4C(=O)O)cccc2n1 (configuration not stated)
ClpP1P2: -1.75
Toxoplasma: 5.902
TcHisRS: -4.469
Pks13 thioesterase: -10.93
PfKRS1: 3.893

compound: CCn1ncc2c1C(COCC1CC1)CN(c1ccncn1)C2.O=C(O)C(F)(F)F.O=C(O)C(F)(F)F (configuration not stated)
Toxoplasma: 3.508

compound: CC1(C)Oc2ccc(NC(=O)c3ccc(=O)[nH]n3)cc2O1
ClpP1P2: 3.926
Toxoplasma: 3.009
TcHisRS: 1.01
Pks13 thioesterase: -47.13
PfKRS1: 2.788

compound: CC(C)c1nnsc1CNC(=O)C1CCN(C(=O)C2CCC2)CC1
ClpP1P2: -0.7522
Toxoplasma: -4.153
TcHisRS: -4.972
Pks13 thioesterase: -20.22
PfKRS1: 6.241

compound: [H][C@@]12CS(=O)(=O)C[C@]1([H])N(C(=O)c1ccc(COC)o1)CCN2CC=C(C)C
Toxoplasma: 1.006

compound: COCCN1CCN(CCS(=O)(=O)C(F)(F)F)CC1C (configuration not stated)
ClpP1P2: 12.7
Toxoplasma: 1.185
TcHisRS: 1.916
Pks13 thioesterase: 5.274
PfKRS1: 7.15

compound: Cc1ncc2c(n1)CCN(Cc1nc3ccccc3o1)C2
ClpP1P2: 3.74
Toxoplasma: 21.64
TcHisRS: 6.415
Pks13 thioesterase: -6.488
PfKRS1: 11.16

compound: NC(=O)c1ccc(-c2nc3c(c(=O)[nH]2)CCNC3)cc1
ClpP1P2: -9.644
Toxoplasma: -4.899
TcHisRS: 6.806
Pks13 thioesterase: 1.469
PfKRS1: 3.356

compound: CO[C@H]1CN(C(=O)c2ccc(-c3ccccc3)[nH]2)CC[C@H]1N
ClpP1P2: 2.304
Toxoplasma: -0.4813
TcHisRS: 11.44
Pks13 thioesterase: -19.59
PfKRS1: 2.072

compound: CCCN1CCCN(S(=O)(=O)c2cnc3onc(C)c3c2)CC1
ClpP1P2: -4.674
Toxoplasma: -15.54
TcHisRS: 5.155
Pks13 thioesterase: -10.42
PfKRS1: 0.0967

compound: CC(c1ccc(C(F)(F)F)cc1)N1CCN(CCS(C)(=O)=O)CC1 (configuration not stated)
ClpP1P2: -5.63
Toxoplasma: 15.18
TcHisRS: 5.155
Pks13 thioesterase: 4.195
PfKRS1: 5.678

Some entries from above, unchanged:

- Cc1ccc2c(-c3nc4c([nH]3)CCNC4C(=O)O)cccc2n1 (configuration not stated) : ClpP1P2: -1.75%; Toxoplasma: 5.902%; TcHisRS: -4.469%; Pks13 thioesterase: -10.93%; PfKRS1: 3.893%
- CN(C)[C@H]1CCN(c2nc(C(C)(C)C)nc3c2cnn3C)C1 : ClpP1P2: -0.6992%; Toxoplasma: -7.876%; TcHisRS: 2.469%; Pks13 thioesterase: -19.5%; PfKRS1: 4.066%

From ChEMBL document CHEMBL3988442, “University of Dundee, Small-Polar-MMV Screening Library” (2021).